Data from PubChem BioAssay AID662 (National Center for Advancing Translational Sciences (NCATS), 2007).
The list shows a part of the results. These are further read-outs of the screen, such as a control signal, another cell line or another target. No call is given for them. Compounds called inactive in the main read-out are mostly missing here. Potencies come from curve fits of mixed quality, noted in brackets.

experiment: Cell signaling CRE-BLA (Fsk stim); settings: CHO CRE-bla reporter (cAMP response element driving beta-lactamase), forskolin EC10, beta-lactamase ratio; measured here: 460 nm blue channel
How it was run: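 Using CellSensor CRE-bla CHO cells in Opti-MEM with 0.5% dialyzed FBS, compounds were titrated with EC10 NKH 477 for 3 h at 37 °C. CCF4 ratio (460/530 nm) gave %Activity; AC50 derived.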

Q: For `N#Cc1nc(COc2ccccc2)oc1N1CCN(Cc2ccccc2)CC1`, which AC50 is on record?
A: 1 µM [rising, full curve]

Q: For `COc1ccc(Nc2nc3c(c(=O)n(C)c(=O)n3C)n2CCO)cc1`, which AC50 is on record?
A: 10 µM [rising, single point]

Q: Which AC50 does the source give for `Cc1nn2c(-c3ccco3)nnc2c2ccccc12` here?
A: 12.6 µM [rising, partial curve]

Q: With `CC(=O)Nc1nc2c(c3c1c(=O)oc1ccccc13)CC(C)CC2` (stereo unspecified) as the molecule, how does the AC50 read?
A: 12.6 µM [rising, single point]

Q: For `COc1cc2c(cc1OC)-c1cc(N3CCCCCC3)nc(=O)n1CC2`, which AC50 is on record?
A: 0.158 µM [rising, full curve]

Q: With `Cn1c(=O)[nH]c(=O)c2c1nc(SCCN1CCOCC1)n2Cc1ccccc1` as the molecule, how does the AC50 read?
A: 15.8 µM [rising, single point]

Q: With `CCOc1ccc2nc(NCCNC(=O)Nc3cccc(C)c3)c(C#N)cc2c1` as the molecule, how does the AC50 read?
A: 12.6 µM [rising, partial curve]

Q: Which AC50 does the source give for `C=CCOC(=O)c1[nH]c2c(c1C)C(=O)CC(c1ccco1)C2` (stereo unspecified) here?
A: 1 µM [rising, full curve]

Q: Which AC50 does the source give for `C/C(=N\S(=O)(=O)c1ccc(C)cc1)N1CCN(S(=O)(=O)c2ccccc2)C1` here?
A: 0.00398 µM [falling, full curve, poor fit]

Q: Which AC50 does the source give for `COc1ccc(C(=O)N2CCC(n3c(C)nc4cc(F)ccc43)CC2)cc1OC` here?
A: 12.6 µM [rising, single point]

Q: With `CCOc1ccc(C2C(C#N)=C(N)SC(N)=C2C#N)c(OCC)c1` as the molecule, how does the AC50 read?
A: 12.6 µM [rising, single point]

Q: Which AC50 does the source give for `CCOc1ccc(OCC)c(NC(=O)CN2CCN(c3cc(C)ccc3C)CC2)c1` here?
A: 0.398 µM [falling, single point]

Q: With `CCCC/C=C/C(NC(=O)C(C)(C)C)c1ccccc1` (stereo unspecified) as the molecule, how does the AC50 read?
A: 25.1 µM [rising, single point]

Q: Which AC50 does the source give for `COc1cc(/C=C/C(=O)CC(=O)/C=C/c2ccc(O)c(OC)c2)ccc1O` here?
A: 25.1 µM [rising, partial curve]

Q: Which AC50 does the source give for `Cc1cccc(CNc2cc(-c3cccc(C#N)c3)ncn2)c1` here?
A: 3.16 µM [rising, full curve, poor fit]

Q: For `CCCCS(=O)(=O)NC1=NCN(CC)CN1`, which AC50 is on record?
A: 0.00316 µM [rising, full curve, poor fit]

Q: With `COc1cc2c(cc1OC)CN(C(=O)CSc1nc(N)c(C#N)cc1C#N)CC2` as the molecule, how does the AC50 read?
A: 7.94 µM [rising, partial curve]

Q: With `CC(C#N)Sc1nc2ccccc2c(=O)n1-c1ccccc1` (stereo unspecified) as the molecule, how does the AC50 read?
A: 12.6 µM [rising, partial curve]

Q: With `COc1ccc(CNc2ccnc(-c3cccc(NS(C)(=O)=O)c3)n2)c(OC)c1` as the molecule, how does the AC50 read?
A: 10 µM [rising, partial curve]

Q: For `CC1CCN(S(=O)(=O)c2cc(Cl)ccc2Br)CC1`, which AC50 is on record?
A: 5.01 µM [falling, partial curve, poor fit]

Q: With `CN(Cc1ccccc1)C(=O)c1cc(-c2ccc(Br)cc2)on1` as the molecule, how does the AC50 read?
A: 10 µM [rising, partial curve]

Q: For `COc1cccc(Nc2ncc3nc(-c4ccc(Cl)cc4)c(=O)n(CCC#N)c3n2)c1`, which AC50 is on record?
A: 2.51 µM [rising, full curve]

Q: For `CCOC(=O)CNc1nnc(SCC(=O)OCC)[nH]c1=O`, which AC50 is on record?
A: 7.94 µM [falling, partial curve]

Q: Which AC50 does the source give for `Cc1cc(NC(=O)CNC(=O)C2CCCCC2)no1` here?
A: 0.631 µM [rising, partial curve]

Q: With `COc1cc(SC)ccc1C(=O)NCCCOC(C)C` as the molecule, how does the AC50 read?
A: 3.16 µM [falling, single point]

Q: With `CCOC(=O)CN1C(=O)C(C)(C)Oc2ccc(C(=O)NC(C)(C)CC)cc21` as the molecule, how does the AC50 read?
A: 3.16 µM [rising, single point]

Q: For `COc1cccc(-n2cc3c(c2-c2ccccc2)c(=O)n(C)c(=O)n3C)c1`, which AC50 is on record?
A: 10 µM [rising, single point]

Q: For `CCOC(=O)C1=C(C)NC(C)=C(C(=O)OCC)C1c1cc2ccc(C)cc2[nH]c1=O`, which AC50 is on record?
A: 25.1 µM [rising, single point]

Q: For `N#Cc1nc(Cc2ccccc2)oc1NCc1ccccc1Cl`, which AC50 is on record?
A: 10 µM [falling, partial curve]

Q: Which AC50 does the source give for `COc1cccc(Cn2c(=O)c(CCc3ccccc3)nc3cnc(N4CCN(C)CC4)nc32)c1` here?
A: 12.6 µM [rising, partial curve]

Q: Which AC50 does the source give for `N#Cc1cccc(-c2ccc3ncnc(NCCN4CCOCC4)c3c2)c1` here?
A: 12.6 µM [rising, partial curve]

Q: With `Cn1cc(-c2nc3cncnc3n(Cc3ccc(F)cc3)c2=O)c2ccccc21` as the molecule, how does the AC50 read?
A: 25.1 µM [rising, single point]

Q: For `Cn1c(=O)[nH]c(=O)c2c1nc(N1CCCCC1)n2CCCSc1nc2ccccc2s1`, which AC50 is on record?
A: 3.98 µM [rising, partial curve]

Q: Which AC50 does the source give for `Cn1ccnc1C(=O)c1cc(=O)c2ccccc2o1` here?
A: 1.58 µM [falling, partial curve]

Q: With `CCCC(C)C(=O)Nc1cccc(NC(C)=O)c1` (stereo unspecified) as the molecule, how does the AC50 read?
A: 1 µM [rising, single point]

Q: Which AC50 does the source give for `N#Cc1ccccc1Cn1c(=O)n(-c2ccc(CC(=O)NCc3ccco3)cc2)c(=O)c2sccc21` here?
A: 25.1 µM [rising, single point]

Q: For `CC(C)C[C@@H](CC(=O)N[C@@H](CCCN)CC(=O)N[C@@H]1CCCC[C@H]1C(=O)N[C@H](CC(=O)N[C@@H](CCC(=O)O)CC(=O)O)Cc1ccccc1)NC(=O)[C@@H]1CCCC[C@H]1N`, which AC50 is on record?
A: 7.94 µM [falling, full curve, poor fit]

Q: For `COC(=O)c1ccccc1CCC(C)=O`, which AC50 is on record?
A: 0.251 µM [falling, partial curve, poor fit]

Q: With `Cc1ncoc1C(=O)Nc1ccccc1C(N)=O` as the molecule, how does the AC50 read?
A: 5.01 µM [falling, single point]

Q: For `O=C(CSc1nnc(-c2cc3ccccc3cc2O)n1Cc1ccco1)c1ccc(F)cc1`, which AC50 is on record?
A: 10 µM [falling, partial curve]

Q: With `Cc1nnc(NC(=O)Cc2ccc(OCc3c(C)noc3C)cc2)s1` as the molecule, how does the AC50 read?
A: 12.6 µM [falling, single point]

Q: With `CCN(CC)c1ccc2cc(NC(=O)CCC(=O)O)c(=O)oc2c1` as the molecule, how does the AC50 read?
A: 10 µM [rising, partial curve]

Q: Which AC50 does the source give for `CN1C(=O)c2ccc(C(=O)NCc3ccccc3)cc2C1=O` here?
A: 25.1 µM [rising, single point]

Q: Which AC50 does the source give for `CC1CCCN(C(=O)C2c3ccccc3C(=O)N3CCc4ccccc4C23)C1` (stereo unspecified) here?
A: 0.0158 µM [falling, full curve, poor fit]

Q: Which AC50 does the source give for `CS(=O)(=O)N(Cc1ccco1)CC(O)Cn1c2ccccc2c2ccccc21` (stereo unspecified) here?
A: 25.1 µM [falling, single point]

Q: With `COC(=O)[C@@H]1C[C@@]1(C)[C@@H](NC(=O)OCc1ccccc1)c1ccccc1` as the molecule, how does the AC50 read?
A: 12.6 µM [rising, partial curve, poor fit]

Q: Which AC50 does the source give for `COc1ccc(C2=NO[C@@H]3C(=O)N(C4CCCCC4)C(=O)[C@H]23)cc1OC` here?
A: 1.58 µM [falling, partial curve]

Q: For `Cc1nc(SCC(=O)Nc2cc(C)on2)c2c3c(sc2n1)CCCC3`, which AC50 is on record?
A: 3.16 µM [rising, partial curve]

Q: Which AC50 does the source give for `COc1ccc2[nH]c3c(c2c1)CN(C)CC3` here?
A: 5.01 µM [falling, full curve, poor fit]

Q: Which AC50 does the source give for `CCOC(=O)c1cn(CC)c2ccc(Br)cc2c1=O` here?
A: 12.6 µM [rising, single point]

Q: For `COc1cccc(C2CC(=O)N3CN(c4cccc(Cl)c4C)CSC3=C2C#N)c1OC` (stereo unspecified), which AC50 is on record?
A: 6.31 µM [rising, partial curve]

Q: For `CC1CCCN(c2oc(-c3cccc4ccccc34)nc2C#N)C1` (stereo unspecified), which AC50 is on record?
A: 3.16 µM [rising, partial curve]

Q: For `COc1ccccc1-c1nc(N(C)C)c2ccccc2n1`, which AC50 is on record?
A: 5.01 µM [rising, full curve]

Q: For `COc1cc(OC)cc(C(=O)N2CCN(Cc3cccc(F)c3)CC2)c1`, which AC50 is on record?
A: 3.16 µM [falling, single point]

Q: For `O=C(Nc1ccc2c(c1)OCCO2)C1CCCN(S(=O)(=O)c2cccs2)C1` (stereo unspecified), which AC50 is on record?
A: 0.158 µM [falling, full curve, poor fit]

Q: With `CCOC(=O)C1CCN(c2nc3cc(OC)ccc3cc2C#N)CC1` as the molecule, how does the AC50 read?
A: 12.6 µM [rising, single point]

Q: Which AC50 does the source give for `Cc1cccc(C(=O)Nc2ncc(CN3CCOCC3)s2)c1` here?
A: 0.00316 µM [falling, full curve, poor fit]

Q: For `CCOc1ccc(C(=O)Nc2c3c(nn2C(C)(C)C)CSC3)cc1OCC`, which AC50 is on record?
A: 12.6 µM [rising, partial curve]

Q: For `CCc1ccccc1N(CC)C(=O)CCc1nc(-c2ccc(C)cc2)no1`, which AC50 is on record?
A: 3.16 µM [rising, single point]

Q: For `CCOc1ccc(NC(=O)CN2CCN(CC(=O)Nc3cc(OC)cc(OC)c3)CC2)cc1`, which AC50 is on record?
A: 1 µM [falling, full curve, poor fit]

Q: For `COc1ccc(CC(NC(C)=O)C(=O)NC2CCN(c3c4c(nc5ncnn35)CCC4)CC2)cc1` (stereo unspecified), which AC50 is on record?
A: 0.00316 µM [falling, full curve, poor fit]

Q: With `Clc1ccc(-n2nnnc2Sc2ncnc3sccc23)cc1` as the molecule, how does the AC50 read?
A: 6.31 µM [falling, partial curve, poor fit]

Q: Which AC50 does the source give for `COc1ccc2c(c1)c1nnc(SCC(=O)N3C(C)CCCC3C)nc1n2C` (stereo unspecified) here?
A: 0.794 µM [rising, full curve]

Q: For `COc1cccc(Cn2c(=O)c(-c3ccc(Cl)cc3)nc3cnc(N4CCNCC4)nc32)c1`, which AC50 is on record?
A: 2.51 µM [rising, full curve]

Q: For `c1ccn2c(SCc3cn4ccsc4n3)nnc2c1`, which AC50 is on record?
A: 0.126 µM [falling, full curve]

Q: For `COc1ccc2c(C)c(C(=O)NCC(C)O)oc2c1OC` (stereo unspecified), which AC50 is on record?
A: 6.31 µM [rising, partial curve]
